Measurements: ChEMBL document CHEMBL4316593 (Eur J Med Chem, 2019)
The source gives many values for each of these; only a part stands here.

What was measured:
Type in all cases: cell-based
Conditions in all cases: U-87MG ATCC
[1] = Inhibition of RTK/PI3K/AKT/mTOR signaling in human U87 cells assessed as down regulation of NDEL1 gene expression at cytotoxic IC50 measured after 48 hrs relative to control
[2] = Inhibition of RTK/PI3K/AKT/mTOR signaling in human U87 cells assessed as down regulation of EMC8 gene expression at cytotoxic IC50 measured after 48 hrs relative to control
[3] = Inhibition of RTK/PI3K/AKT/mTOR signaling in human U87 cells assessed as down regulation of NAA30 gene expression at cytotoxic IC50 measured after 48 hrs relative to control
[4] = Inhibition of RTK/PI3K/AKT/mTOR signaling in human U87 cells assessed as up regulation of chromosome 19 open reading frame 54 gene expression at cytotoxic IC50 measured after 48 hrs relative to control
[5] = Inhibition of RTK/PI3K/AKT/mTOR signaling in human U87 cells assessed as down regulation of DDIT3 gene expression at cytotoxic IC50 measured after 48 hrs relative to control
[6] = Inhibition of RTK/PI3K/AKT/mTOR signaling in human U87 cells assessed as up regulation of choline/ethanolamine phosphotransferase 1 gene expression at cytotoxic IC50 measured after 48 hrs relative to control
[7] = Inhibition of RTK/PI3K/AKT/mTOR signaling in human U87 cells assessed as down regulation of CSNK1G1 gene expression at cytotoxic IC50 measured after 48 hrs relative to control
[8] = Inhibition of RTK/PI3K/AKT/mTOR signaling in human U87 cells assessed as down regulation of C9orf72 gene expression at cytotoxic IC50 measured after 48 hrs relative to control
[9] = Inhibition of RTK/PI3K/AKT/mTOR signaling in human U87 cells assessed as down regulation of CDKN2D gene expression at cytotoxic IC50 measured after 48 hrs relative to control
[10] = Inhibition of RTK/PI3K/AKT/mTOR signaling in human U87 cells assessed as down regulation of NSRP1 gene expression at cytotoxic IC50 measured after 48 hrs relative to control
[11] = Inhibition of RTK/PI3K/AKT/mTOR signaling in human U87 cells assessed as down regulation of SAP130 gene expression at cytotoxic IC50 measured after 48 hrs relative to control
[12] = Inhibition of RTK/PI3K/AKT/mTOR signaling in human U87 cells assessed as up regulation of IARS2 gene expression at cytotoxic IC50 measured after 48 hrs relative to control
[13] = Inhibition of RTK/PI3K/AKT/mTOR signaling in human U87 cells assessed as down regulation of FYCO1 gene expression at cytotoxic IC50 measured after 48 hrs relative to control
[14] = Inhibition of RTK/PI3K/AKT/mTOR signaling in human U87 cells assessed as down regulation of RBM10 gene expression at cytotoxic IC50 measured after 48 hrs relative to control
[15] = Inhibition of RTK/PI3K/AKT/mTOR signaling in human U87 cells assessed as down regulation of GOSR2 gene expression at cytotoxic IC50 measured after 48 hrs relative to control
[16] = Inhibition of RTK/PI3K/AKT/mTOR signaling in human U87 cells assessed as up regulation of IL20RB gene expression at cytotoxic IC50 measured after 48 hrs relative to control
[17] = Inhibition of RTK/PI3K/AKT/mTOR signaling in human U87 cells assessed as down regulation of PRKACA gene expression at cytotoxic IC50 measured after 48 hrs relative to control
[18] = Inhibition of RTK/PI3K/AKT/mTOR signaling in human U87 cells assessed as up regulation of GNL3 gene expression at cytotoxic IC50 measured after 48 hrs relative to control
[19] = Inhibition of RTK/PI3K/AKT/mTOR signaling in human U87 cells assessed as down regulation of ZNF562 gene expression at cytotoxic IC50 measured after 48 hrs relative to control
[20] = Inhibition of RTK/PI3K/AKT/mTOR signaling in human U87 cells assessed as up regulation of NUP88 gene expression at cytotoxic IC50 measured after 48 hrs relative to control
[21] = Inhibition of RTK/PI3K/AKT/mTOR signaling in human U87 cells assessed as down regulation of MPV17L2 gene expression at cytotoxic IC50 measured after 48 hrs relative to control
[22] = Inhibition of RTK/PI3K/AKT/mTOR signaling in human U87 cells assessed as up regulation of GLRX gene expression at cytotoxic IC50 measured after 48 hrs relative to control
[23] = Inhibition of RTK/PI3K/AKT/mTOR signaling in human U87 cells assessed as down regulation of TUBB2A gene expression at cytotoxic IC50 measured after 48 hrs relative to control
[24] = Inhibition of RTK/PI3K/AKT/mTOR signaling in human U87 cells assessed as up regulation of JNK1/MAPK8-associated membrane protein gene expression at cytotoxic IC50 measured after 48 hrs relative to control
[25] = Inhibition of RTK/PI3K/AKT/mTOR signaling in human U87 cells assessed as down regulation of YTHDF3 gene expression at cytotoxic IC50 measured after 48 hrs relative to control
[26] = Inhibition of RTK/PI3K/AKT/mTOR signaling in human U87 cells assessed as up regulation of DDX18 gene expression at cytotoxic IC50 measured after 48 hrs relative to control
[27] = Inhibition of RTK/PI3K/AKT/mTOR signaling in human U87 cells assessed as down regulation of RPA2 gene expression at cytotoxic IC50 measured after 48 hrs relative to control
[28] = Inhibition of RTK/PI3K/AKT/mTOR signaling in human U87 cells assessed as up regulation of C1orf116 gene expression at cytotoxic IC50 measured after 48 hrs relative to control
[29] = Inhibition of RTK/PI3K/AKT/mTOR signaling in human U87 cells assessed as up regulation of solute carrier family 20 member 1 gene expression at cytotoxic IC50 measured after 48 hrs relative to control
[30] = Inhibition of RTK/PI3K/AKT/mTOR signaling in human U87 cells assessed as up regulation of syntaxin 10 gene expression at cytotoxic IC50 measured after 48 hrs relative to control
[31] = Inhibition of RTK/PI3K/AKT/mTOR signaling in human U87 cells assessed as down regulation of PSMB9 gene expression at cytotoxic IC50 measured after 48 hrs relative to control
[32] = Inhibition of RTK/PI3K/AKT/mTOR signaling in human U87 cells assessed as down regulation of LATS2 gene expression at cytotoxic IC50 measured after 48 hrs relative to control

SMILES: CC(=O)C(=NNc1ccccc1C#N)C(C)=O
- log2FC [1]: -0.637
- log2FC [2]: -0.769
- log2FC [3]: -0.868
- log2FC [4]: 1.15
- log2FC [5]: -0.814
- log2FC [6]: 0.769
- log2FC [7]: -0.555
- log2FC [8]: -0.903
- log2FC [9]: -1.28
- log2FC [10]: -0.619
- log2FC [11]: -0.596
- log2FC [12]: 0.446
- log2FC [13]: -0.678
- log2FC [14]: -0.828
- log2FC [15]: -0.832
- log2FC [16]: 3.64
- log2FC [17]: -0.423
- log2FC [18]: 0.611
- log2FC [19]: -1.14
- log2FC [20]: 0.579
- log2FC [21]: -1.19
- log2FC [22]: 2.1
- log2FC [23]: -1.43
- log2FC [24]: 0.869
- log2FC [25]: -0.778
- log2FC [26]: 0.404
- log2FC [27]: -0.681
- log2FC [28]: 1.74
- log2FC [29]: 0.875
- log2FC [30]: 0.996
- log2FC [31]: -1.66
- log2FC [32]: -1.15
